# Data: article PMC7819943, “Rice protein-binding microarrays: a tool to detect cis-acting elements near promoter regions in rice”
# Protein sequences, listed by entry. Tags and fused reporters are not part of them.
# UniProt Q0JBA9, entry or part of it: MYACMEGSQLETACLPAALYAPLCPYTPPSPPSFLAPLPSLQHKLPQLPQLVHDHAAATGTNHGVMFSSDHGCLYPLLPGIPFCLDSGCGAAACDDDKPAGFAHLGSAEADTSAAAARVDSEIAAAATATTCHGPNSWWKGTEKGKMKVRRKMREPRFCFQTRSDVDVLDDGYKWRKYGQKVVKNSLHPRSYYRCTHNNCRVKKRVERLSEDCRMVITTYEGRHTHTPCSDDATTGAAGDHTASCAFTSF
# The list shows a part of the results.
# Biological target: OsWRKY34 (Oryza sativa, UniProt Q0JBA9 1-250)
# Experiment: protein-binding microarray (RPBM); PBS, 2% BSA, 51.3 ng/ul salmon testes DNA, 50 uM zinc acetate, 200 nM TF, 25 C, 1 h; high values mean tight binding
# Details: protein: recombinant; tags: N-terminal polyhistidine and DsRed monomer fusion (pET32a); label: CyDye5-dUTP incorporated in the synthesized complementary strand; 3' TTTTT single-stranded linker to array surface; dsDNA, one strand shown
# How it was run: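 The binding signal is fluorescence intensity per feature, in arbitrary units, read on an Axon 4000B scanner. Polyhistidine- and DsRed-tagged transcription factors (N-terminal fusions) from E. coli BL21-CodonPlus were purified on Ni–NTA and applied at 200 nM for 1 h at 25 °C to a double-stranded, BSA-blocked custom Agilent array in buffer with 50 µM zinc acetate.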
row,Sequence,binding signal
1,GTGCGACTTCTAGGCTTTCGTTGTGTAGGTTTTGTTTCTTCGGAGTCACCTAGTGCAG,11800 fluorescence intensity (a.u.)
2,TCTGTCGCCTGTTCTTCTTCTTCTCACGATTTTTTTCCCCCGGAGTCACCTAGTGCAG,8280 fluorescence intensity (a.u.)
3,TCGAGGATTTTGTTCCTTGCACACATATTGATATACTGACCGGAGTCACCTAGTGCAG,8720 fluorescence intensity (a.u.)
4,CAATTATTCTTGTTATTTACTCATCTCATTTTCAGTGAGTCGGAGTCACCTAGTGCAG,8310 fluorescence intensity (a.u.)
5,GCTGCTCGTCTTCTCGTTCTCTCGCTCGCGCATCGTCTCTCGGAGTCACCTAGTGCAG,16300 fluorescence intensity (a.u.)
6,TAGTGTCGTATTGGAGTATTTCATAGCTATTTTTGTACCGCGGAGTCACCTAGTGCAG,8040 fluorescence intensity (a.u.)
7,GCGTTTCCGTTTTTCCTTCTACATTAGTGTGCTTACGTTTCGGAGTCACCTAGTGCAG,8850 fluorescence intensity (a.u.)
8,TTCCACACAACATATAATTCGTGTCTCTCTGCTTCATCACCGGAGTCACCTAGTGCAG,12600 fluorescence intensity (a.u.)
9,AACAGTGGTATCGTTGTGTAGGGGTGGGCTGGCAAAAAGACGGAGTCACCTAGTGCAG,20000 fluorescence intensity (a.u.)
10,AACTCTCTGTACCTATCACAATTTTCCGCGCCTTAAAATACGGAGTCACCTAGTGCAG,9800 fluorescence intensity (a.u.)
11,AGCCATACCCCGCACACCACGCCACGCAGATCTTTTCTCCCGGAGTCACCTAGTGCAG,8950 fluorescence intensity (a.u.)
12,CCAGATTACACCCTCACCTTTTTTTTCTCTCTTACTCTCACGGAGTCACCTAGTGCAG,9890 fluorescence intensity (a.u.)
13,TGTTTCAGCCATCAATCCGCGTTTTGGTGTCGCGTCGAATCGGAGTCACCTAGTGCAG,8360 fluorescence intensity (a.u.)
14,AGGATTTTTTTTTTGTCAACGTATTTCTATTACCTGCTGTCGGAGTCACCTAGTGCAG,9630 fluorescence intensity (a.u.)
15,CCATTCTTGTCCAACCCACTCTCGTCATATCCCATTGCCACGGAGTCACCTAGTGCAG,8800 fluorescence intensity (a.u.)
16,CTATTTCTACTGATGATTCTTGATTTCACACTTCTCTTACCGGAGTCACCTAGTGCAG,8440 fluorescence intensity (a.u.)
17,TGGTGTGCTCTGGGTGTGTGACATTTCTCCCATTTTTAATCGGAGTCACCTAGTGCAG,8600 fluorescence intensity (a.u.)
18,AGCGCACTCCCATCTCCTCGTCTCACCTCATCTTCTCGGCCGGAGTCACCTAGTGCAG,8440 fluorescence intensity (a.u.)
19,TACCCCGCCCCTGCGCCATCGCCATCGCCATCAATCCACGCGGAGTCACCTAGTGCAG,9070 fluorescence intensity (a.u.)
20,ATGCATGCACTGCTGTGGAACTGGTTTGCACTCTCTTACCCGGAGTCACCTAGTGCAG,8230 fluorescence intensity (a.u.)
21,TGGGCCGGCCCCTGCATTTCTGTATACTGGGCCTAGATTTCGGAGTCACCTAGTGCAG,8160 fluorescence intensity (a.u.)
22,GTTGCAACCTCCCGCCTCACCCGCCGCCATTGACGACCACCGGAGTCACCTAGTGCAG,9260 fluorescence intensity (a.u.)
23,TGTTTTTATTTAGGACCGTTTTTGTTCTTGCCATTTTTTCCGGAGTCACCTAGTGCAG,12100 fluorescence intensity (a.u.)

# From entry 17 up to 20, as listed above:
row,Sequence,binding signal
17,TGGTGTGCTCTGGGTGTGTGACATTTCTCCCATTTTTAATCGGAGTCACCTAGTGCAG,8600 fluorescence intensity (a.u.)
18,AGCGCACTCCCATCTCCTCGTCTCACCTCATCTTCTCGGCCGGAGTCACCTAGTGCAG,8440 fluorescence intensity (a.u.)
19,TACCCCGCCCCTGCGCCATCGCCATCGCCATCAATCCACGCGGAGTCACCTAGTGCAG,9070 fluorescence intensity (a.u.)
20,ATGCATGCACTGCTGTGGAACTGGTTTGCACTCTCTTACCCGGAGTCACCTAGTGCAG,8230 fluorescence intensity (a.u.)
